Results on 1 compound are retold here after patent EP0638566B1, “5-Aminoflavone derivatives, their preparation and their use as antibacterial, anti-estrogenic and/or antitumor agent” (KYOWA HAKKO KOGYO CO., LTD., priority 1993, dated 1995).

The IC50 is the concentration that gives 50% inhibition. A high value points to weaker potency in that assay.

Each structure is given as a SMILES string.

For this test, the system named is Human mammary cancer MCF-7 cell. Briefly: Human mammary cancer MCF-7 cell growth inhibition test (neutral red). Particulars: MCF7, MCF-7 cells, medium with 10^-8M estradiol, 72 hours, absorbance at 550 nm. The format is cell-based. As for the experimental part: Human mammary cancer MCF-7 cell growth inhibition test
Each 0.1 ml of MCF-7 cells which had been prepared to 5 x 10^4/ml using a medium (referred to as Medium B hereinafter) prepared by adding 10% bovine fetal serum, 10^-8M estradiol (manufactured by Sigma), 100 units/ml penicillin and 100 µg/ml streptomycin to RPMI1640 medium was distributed in each well of 96 well-microtiter plate. The plate was cultured at 37 °C for 20 hours in a CO2 gas incubator, each 0.05 ml of samples (test compound) which had been appropriately diluted with Medium B was added thereto and the mixture was cultured at 37 °C for 72 hours in a CO2 gas incubator. Supernatant was removed, each 0.1 ml of Medium B containing 0.02% neutral red was added to the residue, the mixture was cultured at 37 °C for 1 hour in a CO2 gas incubator and the cells were stained by neutral red dye. Supernatant was removed and the residue was washed once with a physiological saline. Then, the dye was extracted with 0.001N hydrochloric acid/30% ethanol and the absorbance at 550 nm was determined with a microplatereader. Sample concentration at which the growth of cell is inhibited by 50% (IC50) was calculated by comparing the absorbance of untreated cells and sample-treated cells.

Take `CC/C(=C(\c1ccccc1)c1ccc(OCCN(C)C)cc1)c1ccccc1` [Tamoxifen]: the IC50 is 23 µM.
